# According to the supplement of paper PMC8728848:
# Some of the results follow.
# B1: HA-00510 (Pseudomonas aeruginosa), Q02V39_PSEAB (protein)
# chain: GVPIVNIATPNGAGLSNNHFRDYNVGANGLILNNATGKTQGTQLGGIILGNPNLKGQAAQVILNQVTGGNRSTLAGYTEVAGQSARVIVANPHGITCQGCGFINTPRATLTTGKPIMDGQRLERFQVDGGDIVVEGAELNVGNLEQFDLITRSAKLNAKLYAKNLNIVTGRNDVQADSLQATPRAADGSEKPQLAIDSSALGGMYAGAIRLVGTEQGVGVKLAGDMAASGGDIRIDASGKLSLAQASSQGDLKIAAQAVELNGKTYAGGSAEIRSAEELVNRQS
# How the values were obtained:
# Test in all cases: glycan array binding signal (z-score within array); higher = stronger binding
# Details in all cases: glycan notation: IUPAC condensed, linker removed
# [1] = biological target: Gal(b1-4)GlcNAc(b1-2)[Gal(b1-4)GlcNAc(b1-6)]Man(a1-6)[Gal(b1-4)GlcNAc(b1-2)Man(a1-3)]Man(b1-4)GlcNAc(b1-4)[Fuc(a1-6)]GlcNAc
# Summary of the method: (§1)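 The binding signal is a Z-score computed within each array and averaged over linkers. Arrays of the same protein sequence at different concentrations or buffers were also averaged together. Data originate from 3228 arrays in the Consortium for Functional Glycomics database, kept only where the protein sequence was available.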
# [2] = biological target: Gal(b1-4)GlcNAc(b1-2)[Gal(b1-4)GlcNAc(b1-6)]Man(a1-6)[GlcNAc(b1-4)][Gal(b1-4)GlcNAc(b1-2)Man(a1-3)]Man(b1-4)GlcNAc(b1-4)GlcNAc
# Summary of the method: as §1
# [3] = biological target: Gal(b1-4)GlcNAc(b1-2)[Gal(b1-4)GlcNAc(b1-6)]Man(a1-6)[GlcNAc(b1-4)][Gal(b1-4)GlcNAc(b1-2)[Gal(b1-4)GlcNAc(b1-4)]Man(a1-3)]Man(b1-4)GlcNAc(b1-4)[Fuc(a1-6)]GlcNAc
# Summary of the method: as §1
# [4] = biological target: Gal(b1-4)GlcNAc(b1-3)Gal(b1-3)GalNAc
# Summary of the method: as §1
# [5] = biological target: Gal(b1-4)GlcNAc(b1-3)Gal(b1-3)GlcNAc
# Summary of the method: as §1
# [6] = biological target: Gal(b1-4)GlcNAc(b1-3)Gal(b1-4)Glc
# Summary of the method: as §1
# [7] = biological target: Gal(b1-4)GlcNAc(b1-3)Gal(b1-4)GlcNAc
# Summary of the method: as §1
# [8] = biological target: Gal(b1-4)GlcNAc(b1-3)Gal(b1-4)GlcNAc(b1-2)Man(a1-3)[Gal(b1-4)GlcNAc(b1-3)Gal(b1-4)GlcNAc(b1-2)Man(a1-6)]Man(b1-4)GlcNAc(b1-4)GlcNAc
# Summary of the method: as §1
# [9] = biological target: Gal(b1-4)GlcNAc(b1-3)Gal(b1-4)GlcNAc(b1-2)Man(a1-3)[Gal(b1-4)GlcNAc(b1-3)Gal(b1-4)GlcNAc(b1-2)Man(a1-6)]Man(b1-4)GlcNAc(b1-4)[Fuc(a1-6)]GlcNAc
# Summary of the method: as §1
# [10] = biological target: Gal(b1-4)GlcNAc(b1-3)Gal(b1-4)GlcNAc(b1-2)[Gal(b1-4)GlcNAc(b1-3)Gal(b1-4)GlcNAc(b1-6)]Man(a1-6)[Gal(b1-4)GlcNAc(b1-3)Gal(b1-4)GlcNAc(b1-2)Man(a1-3)]Man(b1-4)GlcNAc(b1-4)GlcNAc
# Summary of the method: as §1
# [11] = biological target: Gal(b1-4)GlcNAc(b1-3)Gal(b1-4)GlcNAc(b1-2)[Gal(b1-4)GlcNAc(b1-3)Gal(b1-4)GlcNAc(b1-6)]Man(a1-6)[Gal(b1-4)GlcNAc(b1-3)Gal(b1-4)GlcNAc(b1-2)Man(a1-3)]Man(b1-4)GlcNAc(b1-4)[Fuc(a1-6)]GlcNAc
# Summary of the method: as §1
# [12] = biological target: Gal(b1-4)GlcNAc(b1-3)Gal(b1-4)GlcNAc(b1-3)Gal(b1-4)GlcNAc
# Summary of the method: as §1
# [13] = biological target: Gal(b1-4)GlcNAc(b1-3)Gal(b1-4)GlcNAc(b1-3)Gal(b1-4)GlcNAc(b1-2)Man(a1-3)[Gal(b1-4)GlcNAc(b1-3)Gal(b1-4)GlcNAc(b1-3)Gal(b1-4)GlcNAc(b1-2)Man(a1-6)]Man(b1-4)GlcNAc(b1-4)GlcNAc
# Summary of the method: as §1
# [14] = biological target: Gal(b1-4)GlcNAc(b1-3)Gal(b1-4)GlcNAc(b1-3)Gal(b1-4)GlcNAc(b1-2)Man(a1-3)[Gal(b1-4)GlcNAc(b1-3)Gal(b1-4)GlcNAc(b1-3)Gal(b1-4)GlcNAc(b1-2)Man(a1-6)]Man(b1-4)GlcNAc(b1-4)[Fuc(a1-6)]GlcNAc
# Summary of the method: as §1
# [15] = biological target: Gal(b1-4)GlcNAc(b1-3)Gal(b1-4)GlcNAc(b1-3)Gal(b1-4)GlcNAc(b1-2)[Gal(b1-4)GlcNAc(b1-3)Gal(b1-4)GlcNAc(b1-3)Gal(b1-4)GlcNAc(b1-6)]Man(a1-6)[Gal(b1-4)GlcNAc(b1-3)Gal(b1-4)GlcNAc(b1-3)Gal(b1-4)GlcNAc(b1-2)Man(a1-3)]Man(b1-4)GlcNAc(b1-4)[Fuc(a1-6)]GlcNAc
# Summary of the method: as §1
# [16] = biological target: Gal(b1-4)GlcNAc(b1-3)Gal(b1-4)GlcNAc(b1-3)Gal(b1-4)GlcNAc(b1-3)Gal(b1-4)GlcNAc(b1-2)Man(a1-3)[Gal(b1-4)GlcNAc(b1-3)Gal(b1-4)GlcNAc(b1-3)Gal(b1-4)GlcNAc(b1-3)Gal(b1-4)GlcNAc(b1-2)Man(a1-6)]Man(b1-4)GlcNAc(b1-4)GlcNAc
# Summary of the method: as §1
# [17] = biological target: Gal(b1-4)GlcNAc(b1-3)Gal(b1-4)GlcNAc(b1-3)Gal(b1-4)GlcNAc(b1-3)Gal(b1-4)GlcNAc(b1-2)Man(a1-3)[Gal(b1-4)GlcNAc(b1-3)Gal(b1-4)GlcNAc(b1-3)Gal(b1-4)GlcNAc(b1-3)Gal(b1-4)GlcNAc(b1-2)Man(a1-6)]Man(b1-4)GlcNAc(b1-4)[Fuc(a1-6)]GlcNAc
# Summary of the method: as §1
# [18] = biological target: Gal(b1-4)GlcNAc(b1-3)Gal(b1-4)GlcNAc(b1-3)Gal(b1-4)GlcNAc(b1-3)Gal(b1-4)GlcNAc(b1-2)[Gal(b1-4)GlcNAc(b1-3)Gal(b1-4)GlcNAc(b1-3)Gal(b1-4)GlcNAc(b1-3)Gal(b1-4)GlcNAc(b1-6)]Man(a1-6)[Gal(b1-4)GlcNAc(b1-3)Gal(b1-4)GlcNAc(b1-3)Gal(b1-4)GlcNAc(b1-3)Gal(b1-4)GlcNAc(b1-2)Man(a1-3)]Man(b1-4)GlcNAc(b1-4)[Fuc(a1-6)]GlcNAc
# Summary of the method: as §1
# [19] = biological target: Gal(b1-4)GlcNAc(b1-3)Gal(b1-4)GlcNAc(b1-3)Gal(b1-4)GlcNAc(b1-3)Gal(b1-4)GlcNAc(b1-3)Gal(b1-4)GlcNAc(b1-2)Man(a1-3)[Gal(b1-4)GlcNAc(b1-3)Gal(b1-4)GlcNAc(b1-3)Gal(b1-4)GlcNAc(b1-3)Gal(b1-4)GlcNAc(b1-3)Gal(b1-4)GlcNAc(b1-2)Man(a1-6)]Man(b1-4)GlcNAc(b1-4)GlcNAc
# Summary of the method: as §1
# [20] = biological target: Gal(b1-4)GlcNAc(b1-3)Gal(b1-4)GlcNAc(b1-3)Gal(b1-4)GlcNAc(b1-3)Gal(b1-4)GlcNAc(b1-3)Gal(b1-4)GlcNAc(b1-2)Man(a1-3)[Gal(b1-4)GlcNAc(b1-3)Gal(b1-4)GlcNAc(b1-3)Gal(b1-4)GlcNAc(b1-3)Gal(b1-4)GlcNAc(b1-3)Gal(b1-4)GlcNAc(b1-2)Man(a1-6)]Man(b1-4)GlcNAc(b1-4)[Fuc(a1-6)]GlcNAc
# Summary of the method: as §1
# [21] = biological target: Gal(b1-4)GlcNAc(b1-3)Gal(b1-4)GlcNAc(b1-3)Gal(b1-4)GlcNAc(b1-3)Gal(b1-4)GlcNAc(b1-3)Gal(b1-4)GlcNAc(b1-2)[Gal(b1-4)GlcNAc(b1-3)Gal(b1-4)GlcNAc(b1-3)Gal(b1-4)GlcNAc(b1-3)Gal(b1-4)GlcNAc(b1-3)Gal(b1-4)GlcNAc(b1-6)]Man(a1-6)[Gal(b1-4)GlcNAc(b1-3)Gal(b1-4)GlcNAc(b1-3)Gal(b1-4)GlcNAc(b1-3)Gal(b1-4)GlcNAc(b1-3)Gal(b1-4)GlcNAc(b1-2)Man(a1-3)]Man(b1-4)GlcNAc(b1-4)[Fuc(a1-6)]GlcNAc
# Summary of the method: as §1
# [22] = biological target: Gal(b1-4)GlcNAc(b1-3)Gal(b1-4)GlcNAc(b1-3)Gal(b1-4)GlcNAc(b1-3)Gal(b1-4)GlcNAc(b1-3)Gal(b1-4)GlcNAc(b1-3)Gal(b1-4)GlcNAc(b1-2)Man(a1-3)[Gal(b1-4)GlcNAc(b1-3)Gal(b1-4)GlcNAc(b1-3)Gal(b1-4)GlcNAc(b1-3)Gal(b1-4)GlcNAc(b1-3)Gal(b1-4)GlcNAc(b1-3)Gal(b1-4)GlcNAc(b1-2)Man(a1-6)]Man(b1-4)GlcNAc(b1-4)GlcNAc
# Summary of the method: as §1
# [23] = biological target: Gal(b1-4)GlcNAc(b1-3)Gal(b1-4)GlcNAc(b1-3)GalNAc
# Summary of the method: as §1
# [24] = biological target: Gal(b1-4)GlcNAc(b1-3)Gal(b1-4)GlcNAc(b1-3)[Gal(b1-4)GlcNAc(b1-3)Gal(b1-4)GlcNAc(b1-6)]GalNAc
# Summary of the method: as §1
# [25] = biological target: Gal(b1-4)GlcNAc(b1-3)Gal(b1-4)GlcNAc(b1-6)[Gal(b1-3)]GalNAc
# Summary of the method: as §1
# [26] = biological target: Gal(b1-4)GlcNAc(b1-3)Gal(b1-4)[Fuc(a1-3)]GlcNAc(b1-3)Gal(b1-4)[Fuc(a1-3)]GlcNAc
# Summary of the method: as §1
# [27] = biological target: Gal(b1-4)GlcNAc(b1-3)GalNAc
# Summary of the method: as §1
# [28] = biological target: Gal(b1-4)GlcNAc(b1-3)[Fuc(a1-3)GlcNAc(b1-6)]Gal(b1-4)Glc
# Summary of the method: as §1
# [29] = biological target: Gal(b1-4)GlcNAc(b1-3)[Gal(b1-4)GlcNAc(b1-6)]Gal(b1-4)GlcNAc
# Summary of the method: as §1
# [30] = biological target: Gal(b1-4)GlcNAc(b1-3)[GlcNAc(b1-6)]Gal(b1-4)GlcNAc
# Summary of the method: as §1
# [31] = biological target: Gal(b1-4)GlcNAc(b1-6)Gal(b1-4)GlcNAc
# Summary of the method: as §1
# [32] = biological target: Gal(b1-4)GlcNAc(b1-6)GalNAc
# Summary of the method: as §1
# [33] = biological target: Gal(b1-4)GlcNAc(b1-6)[Gal(b1-3)]GalNAc
# Summary of the method: as §1
# [34] = biological target: Gal(b1-4)GlcNAc(b1-6)[Gal(b1-4)GlcNAc(b1-3)]GalNAc
# Summary of the method: as §1
# [35] = biological target: Gal(b1-4)GlcNAc6P
# Summary of the method: as §1
# [36] = biological target: Gal(b1-6)Gal
# Summary of the method: as §1
# [37] = biological target: Gal3S(b1-3)GalNAc
# Summary of the method: as §1
# [38] = biological target: Gal3S(b1-3)GlcNAc
# Summary of the method: as §1
binder,measurement,setting,value
B1,glycan array binding signal (z-score),[1],-0.013
same,glycan array binding signal (z-score),[2],-0.798
same,glycan array binding signal (z-score),[3],-0.09
same,glycan array binding signal (z-score),[4],-0.452
same,glycan array binding signal (z-score),[5],0.515
same,glycan array binding signal (z-score),[6],0.719
same,glycan array binding signal (z-score),[7],-0.63
same,glycan array binding signal (z-score),[8],6.41
same,glycan array binding signal (z-score),[9],-0.448
same,glycan array binding signal (z-score),[10],1.94
same,glycan array binding signal (z-score),[11],0.995
same,glycan array binding signal (z-score),[12],-0.092
same,glycan array binding signal (z-score),[13],1.43
same,glycan array binding signal (z-score),[14],0.088
same,glycan array binding signal (z-score),[15],0.107
same,glycan array binding signal (z-score),[16],-0.943
same,glycan array binding signal (z-score),[17],-0.071
same,glycan array binding signal (z-score),[18],0.615
same,glycan array binding signal (z-score),[19],-0.151
same,glycan array binding signal (z-score),[20],-0.155
same,glycan array binding signal (z-score),[21],-0.029
same,glycan array binding signal (z-score),[22],-0.473
same,glycan array binding signal (z-score),[23],3.26
same,glycan array binding signal (z-score),[24],3.88
same,glycan array binding signal (z-score),[25],1.08
same,glycan array binding signal (z-score),[26],0.208
same,glycan array binding signal (z-score),[27],0.204
same,glycan array binding signal (z-score),[28],0.203
same,glycan array binding signal (z-score),[29],-0.05
same,glycan array binding signal (z-score),[30],-0.3
same,glycan array binding signal (z-score),[31],-0.446
same,glycan array binding signal (z-score),[32],0.013
same,glycan array binding signal (z-score),[33],-0.945
same,glycan array binding signal (z-score),[34],-0.374
same,glycan array binding signal (z-score),[35],-0.894
same,glycan array binding signal (z-score),[36],-0.435
same,glycan array binding signal (z-score),[37],0.37
same,glycan array binding signal (z-score),[38],-0.431

# 10 entries from above, with tabs.
binder	measurement	setting	value
B1	glycan array binding signal (z-score)	[2]	-0.798
same	glycan array binding signal (z-score)	[4]	-0.452
same	glycan array binding signal (z-score)	[7]	-0.63
same	glycan array binding signal (z-score)	[10]	1.94
same	glycan array binding signal (z-score)	[14]	0.088
same	glycan array binding signal (z-score)	[25]	1.08
same	glycan array binding signal (z-score)	[26]	0.208
same	glycan array binding signal (z-score)	[29]	-0.05
same	glycan array binding signal (z-score)	[31]	-0.446
same	glycan array binding signal (z-score)	[33]	-0.945
